# In patent publication US8361734B2, “Xanthurenic acid derivative pharmaceutical compositions and methods related thereto” (Naturon, Inc., priority 2004, dated 2013):
# Legend:
# Type in all cases: in vivo
# [1] = test system: normal Sprague Dawley rat; test: Natriuretic response (Na+ and K+ urine excretion) after i.v. administration in a normal Sprague Dawley rat; conditions: furosemide only, FIG. 25 (0.5 mg i.v.)
# Experimental: A female Sprague Dawley rat (250 g) was anesthetized lightly with ether and a tail vein catheter was placed using PE10 tubing. Additionally, a urethra catheter was inserted using KY jelly and 2% lidocaine as a lubricant. The rat was restrained in a modified Plexiglas tube so that urine could be collected in 1.5-mL microcentrifuge tubes. Saline infusion started at time zero at 0.02 mL/min for the duration of the assay. The same i.v. catheter was used to inject the test compound. Synthetic xanthurenic acid 8-O-β-D-glucoside, 2 μg, was injected at the time indicated in a 1-mL volume in saline over the course of 10 minutes. The tubes were centrifuged at 14,000 rpm to separate any RBC's from the urine. Na^+ and K^+ concentrations in the urine were measured with respective ion selective electrodes. The Na^+ and K^+ excretion rates were calculated by: (vol of urine/time of collection period)×(ion urine concentration). […] Given an extracellular volume of 50 mL in a 250-g rat, the concentration of the test compound was […], a possible minimum dose.
# A female Sprague Dawley rat (250 g) was anesthetized lightly with ether and a tail vein catheter was placed using PE10 tubing. […] Na^+ and K^+ concentrations in the urine were measured with respective ion selective electrodes. The Na^+ and K^+ excretion rates were calculated by: (vol of urine/time of collection period)×(ion urine concentration).
# [2] = test system: normal Sprague Dawley rat; test: Natriuretic response (Na+ and K+ urine excretion) after oral administration in a normal Sprague Dawley rat
# Experimental: A female Sprague Dawley rat (250 g) was anesthetized lightly with ether and a urethra catheter was inserted using KY jelly and 2% lidocaine as a lubricant. The rat was restrained in a modified Plexiglas tube so that urine could be collected in 1.5-mL microcentrifuge tubes. No saline infusion was administered. Synthetic xanthurenic acid 8-O-β-D-glucoside was injected with a feeding needle at the time indicated in a 1-mL volume of water over the course of 1 minute. […] The tubes were centrifuged at 14,000 rpm to separate any RBC's from the urine. Na^+ and K^+ concentrations in the urine were measured with respective ion selective electrodes. The Na^+ and K^+ excretion rates were calculated by: (vol of urine/time of collection period)×(ion urine concentration).
# A female Sprague Dawley rat (250 g) was anesthetized lightly with ether and a urethra catheter was inserted using KY jelly and 2% lidocaine as a lubricant. The rat was restrained in a modified Plexiglas tube so that urine could be collected in 1.5-mL microcentrifuge tubes. No saline infusion was administered. […] Na^+ and K^+ concentrations in the urine were measured with respective ion selective electrodes. The Na^+ and K^+ excretion rates were calculated by: (vol of urine/time of collection period)×(ion urine concentration).
# [3] = test system: uremic Sprague Dawley rat; test: Natriuretic response (Na+ and K+ urine excretion) after i.v. administration in a uremic Sprague Dawley rat; conditions: furosemide 20 ug i.v., 2 hours after isolated glucoside 3 μg i.v.
# Description: Female Sprague-Dawley rat, weighing 225 g, was made uremic by tying off one kidney and 30-50% of the second kidney. Two weeks later the rat was ready to test for natriuretic activity. The rat was anesthetized lightly with ether and a tail vein catheter was placed using PE10 tubing. Additionally, a urethra catheter was inserted using KY jelly and 2% lidocaine as a lubricant. The rat was restrained in a modified Plexiglas tube so that urine could be collected in 1.5-mL microcentrifuge tubes. Saline infusion started at time zero at 0.02 mL/min for the length of the assay. The same i.v. catheter was used to inject isolated xanthurenic acid 8-O-β-glucoside at the time indicated in a 1-mL volume in saline over the course of 10 minutes. […] Na^+ and K^+ concentrations in the urine were measured with respective ion selective electrodes. The Na^+ and K^+ excretion rates were calculated by: (vol of urine/time of collection period)×(ion urine concentration).
# A female Sprague-Dawley rat, weighing 225 g, was made uremic by tying off one kidney and 30-50% of the second kidney. Two weeks later the rat was ready to test for natriuretic activity. […] Na^+ and K^+ concentrations in the urine were measured with respective ion selective electrodes. The Na^+ and K^+ excretion rates were calculated by: (vol of urine/time of collection period)×(ion urine concentration).
structure (smiles),measurement,setting,value
"NS(=O)(=O)c1cc(C(=O)O)c(NCc2ccco2)cc1Cl [furosemide, reference compound]",K+ excretion,[1],causes K^+ excretion
same,Na+ excretion,"[2]; furosemide 100 μg oral, sixty minutes after glucoside 10 μg oral, FIGS. 9-11",caused sustained Na^+ excretion
same,Na+ and K+ excretion,[2]; oral furosemide alone (data not shown),caused both Na^+ and K^+ excretion
same,diuretic response (time course and Na+ excretion),[3],classic
